Publication PMC11641020

By UniProt entry, the sequences of proteins in these tests, tags left out.
UniProt P55786: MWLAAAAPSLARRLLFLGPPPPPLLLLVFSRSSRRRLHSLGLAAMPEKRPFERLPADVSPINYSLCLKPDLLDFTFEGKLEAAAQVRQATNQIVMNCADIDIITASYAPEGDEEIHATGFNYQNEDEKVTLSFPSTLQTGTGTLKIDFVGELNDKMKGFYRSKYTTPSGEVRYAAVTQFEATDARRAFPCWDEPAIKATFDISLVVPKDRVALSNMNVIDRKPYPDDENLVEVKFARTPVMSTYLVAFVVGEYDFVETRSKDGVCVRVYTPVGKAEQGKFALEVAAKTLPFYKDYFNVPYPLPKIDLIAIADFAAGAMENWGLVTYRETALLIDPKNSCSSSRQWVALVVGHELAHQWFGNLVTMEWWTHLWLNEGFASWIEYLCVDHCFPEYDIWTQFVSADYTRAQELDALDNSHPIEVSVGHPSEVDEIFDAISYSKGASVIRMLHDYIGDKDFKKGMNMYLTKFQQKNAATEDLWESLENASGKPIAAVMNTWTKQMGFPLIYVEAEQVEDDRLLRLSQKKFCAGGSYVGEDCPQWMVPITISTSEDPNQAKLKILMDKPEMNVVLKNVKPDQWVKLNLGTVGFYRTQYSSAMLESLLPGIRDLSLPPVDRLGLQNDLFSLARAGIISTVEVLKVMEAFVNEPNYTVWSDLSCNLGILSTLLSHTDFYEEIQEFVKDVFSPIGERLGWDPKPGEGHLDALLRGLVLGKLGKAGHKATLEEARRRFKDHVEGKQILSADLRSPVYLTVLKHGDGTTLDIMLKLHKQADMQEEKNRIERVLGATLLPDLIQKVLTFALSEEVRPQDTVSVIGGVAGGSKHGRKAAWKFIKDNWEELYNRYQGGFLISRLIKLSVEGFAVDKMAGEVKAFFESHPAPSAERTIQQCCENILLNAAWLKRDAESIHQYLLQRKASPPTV

Biological target: FLAG-tagged NPEPPS (puromycin-sensitive aminopeptidase), wild type (human) (UniProt P55786)
Assay: affinity purification with mass spectrometry; anti-FLAG IP of NPEPPS^FLAG from KU1919 and T24 lysates, LC-MS/MS, enrichment over non-FLAG controls, n = 3 independent lysates per cell line

binding: binds
B1: solute carrier family 1 member 5 (SLC1A5), endogenous (protein, UniProt Q15758 1-541)
chain: MVADPPRDSKGLAAAEPTANGGLALASIEDQGAAAGGYCGSRDQVRRCLRANLLVLLTVVAVVAGVALGLGVSGAGGALALGPERLSAFVFPGELLLRLLRMIILPLVVCSLIGGAASLDPGALGRLGAWALLFFLVTTLLASALGVGLALALQPGAASAAINASVGAAGSAENAPSKEVLDSFLDLARNIFPSNLVSAAFRSYSTTYEERNITGTRVKVPVGQEVEGMNILGLVVFAIVFGVALRKLGPEGELLIRFFNSFNEATMVLVSWIMWYAPVGIMFLVAGKIVEMEDVGLLFARLGKYILCCLLGHAIHGLLVLPLIYFLFTRKNPYRFLWGIVTPLATAFGTSSSSATLPLMMKCVEENNGVAKHISRFILPIGATVNMDGAALFQCVAAVFIAQLSQQSLDFVKIITILVTATASSVGAAGIPAGGVLTLAIILEAVNLPVDHISLILAVDWLVDRSCTVLNVEGDALGAGLLQNYVDRTESRSTEPELIQVKSELPLDPLPVPTEEGNPLLKHYRGPAGDATVASEKESVM

No constants are given. Whether binding was seen depends on the method and setting. In cells and extracts the contact can be indirect. A yes stands for co-enrichment or nearness to the bait. Other partners may have been found.
